In US7220755B2, “42-O-alkoxyalkyl rapamycin derivatives and compositions comprising same” (Biosensors International Group, Ltd., priority 2003, dated 2007):

System: pig coronary artery (restenosis after overstretch injury)
Experiment: Pig coronary artery overstretch injury model with drug-eluting stents
Type: in vivo
Experimental: In another study, stents carrying 42-O-(2-ethoxyethyl) rapamycin in the form of a polymer (poly-dl-lactic acid) coating were prepared for insertion into pigs with a vessel overstretch injury to the coronary artery. Comparative and control stents includes bare metal stents, stents having a polymer coating of poly-dl-lactic acid absent drug, stents carrying rapamycin in a poly-dl-lactic acid polymer coating, and stents carrying everolimus in a poly-dl-lactic acid polymer coating. The stents were inserted into vessels which seriously injured (averaging approximately 36% overstretch injury of the vessel) using an angioplasty balloon. […] In this way, it was possible to assess the relative effectiveness of the various test compounds presented to the vessels on the same metal stent/polymer platform. At the time of insertion, the extent of overstretch was recorded as a percent balloon/artery (B/A) ratio.

[1] = high dose, drug load 325 μg, polymer coat 1300 μg, 28 days
[2] = low dose, drug load 180 μg, polymer coat 1300 μg

| SMILES | Average Injury score [1] | Average Injury score [2] | Average Injury score (drug load 225 μg, polymer coat 225 μg, stent length 15 mm) | Average Injury score (high dose, drug load 325 μg, polymer coat 1300 μg, 6 months) | Average Injury score (med. dose, drug load 275 μg, polymer coat 640–780 μg) |
| --- | --- | --- | --- | --- | --- |
| CO[C@H]1C[C@@H]2CC[C@@H](C)[C@@](O)(O2)C(=O)C(=O)N2CCCC[C@H]2C(=O)O[C@H]([C@H](C)C[C@@H]2CC[C@@H](O)[C@H](OC)C2)CC(=O)[C@H](C)/C=C(\C)[C@@H](O)[C@@H](OC)C(=O)[C@H](C)C[C@H](C)/C=C/C=C/C=C/1C [rapamycin] | 2.10 | 1.90 |  |  |  |
| CCOCCO[C@@H]1CC[C@@H](C[C@@H](C)[C@@H]2CC(=O)[C@H](C)/C=C(\C)[C@@H](O)[C@@H](OC)C(=O)[C@H](C)C[C@H](C)/C=C/C=C/C=C(\C)[C@@H](OC)C[C@@H]3CC[C@@H](C)[C@@](O)(O3)C(=O)C(=O)N3CCCC[C@H]3C(=O)O2)C[C@H]1OC [42-O-(2-ethoxyethyl) rapamycin] |  |  | 1.29 |  |  |
| CO[C@H]1C[C@@H]2CC[C@@H](C)[C@@](O)(O2)C(=O)C(=O)N2CCCC[C@H]2C(=O)O[C@H]([C@H](C)C[C@@H]2CC[C@@H](OCCO)[C@H](OC)C2)CC(=O)[C@H](C)/C=C(\C)[C@@H](O)[C@@H](OC)C(=O)[C@H](C)C[C@H](C)/C=C/C=C/C=C/1C [everolimus] | 1.89 | 2.10 |  | 2.67 | 2.13 |
